Results from PubChem BioAssay AID493014 (National Center for Advancing Translational Sciences (NCATS), 2011).
The list shows a part of the results. These are further read-outs of the screen, such as a control signal, another cell line or another target. No call is given for them. The list favours compounds with an active or inconclusive main result. Words in brackets tell the shape of the fitted curve; partial curves, single points and poor fits give uncertain potencies.

Experiment: qHTS Assay to Find Inhibitors of Chronic Active B-Cell Receptor Signaling
Conditions: ABC-DLBCL IkBa-CBG/CBR reporter, luminescence ratio (green luciferase fused to IkBa over red control in TMD8 lymphoma cells), 4 h
Method in brief: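 Cell line TMD8 (human ABC DLBCL), stably expressing tet-inducible CBG68-IkBa fusion and CBR; IMDM/0.5% FBS; cpd up to 46 uM; dox induction, 4 h, 37C/5% CO2; dual luminescence; green/red ratio; MG132 control.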

[1] = measured here: CBR red luminescence, cell number
[2] = measured here: IkBa-CBG green luminescence

SMILES	AC50 [1]	AC50 [2]
CCN=C(NS(=O)(=O)c1ccc(Br)cc1)c1ccc(Cl)cc1	17.8 µM [falling, single point]	–
Cc1c(Cl)cccc1NCC(=O)Nc1ccc(Cl)cc1F	8.2 µM [falling, partial curve]	–
Cc1ccc(S(=O)(=O)N(C)CC(=O)NCC(c2ccco2)N(C)C)cc1 (configuration not stated)	29.1 µM [rising, single point]	–
O=C(NNS(=O)(=O)c1ccc(Cl)cc1)c1cnn(-c2ccccc2)c1-n1cccc1	14.1 µM [falling, partial curve, poor fit]	–
CCc1ccc(N2C(=O)c3sc4nnc(-c5ccccc5)c(=O)n4c3C2=O)cc1	23.1 µM [rising, single point]	–
Oc1ccc(N=Nc2cccc(C(F)(F)F)c2)cc1C=Nc1ccc(N2CCOCC2)cc1	13 µM [rising, partial curve, poor fit]	–
COc1ccccc1-c1csc(NC(=O)c2ccc(N3C(=O)CCC3=O)cc2)n1	10 µM [falling, partial curve]	–
Cc1cc(C)c(C)c(C(=O)COC(=O)CNC(=O)CNC(=O)c2ccco2)c1C	12.6 µM [rising, single point]	–
N#C/C(=C\c1ccc2c(c1)OCCO2)C(=O)Nc1nccs1	22.4 µM [falling, single point]	–
C/C(=N\NC(=S)Nc1c(C)cccc1C)c1cc2ccccc2o1	6.51 µM [rising, single point]	–
Cc1ccc(SCc2c(-c3ccccc3)nn(C)c2Cl)cc1	29.1 µM [rising, single point]	–
COc1ccc(Cl)cc1NC(=O)NCc1cccnc1	8.91 µM [rising, partial curve, poor fit]	–
O=C(CCC1N=C2c3ccccc3N=C(SCC(=O)NCC3CCCO3)N2C1=O)NCc1ccc(F)cc1 (configuration not stated)	0.355 µM [falling, partial curve, poor fit]	–
CCn1c(SCC(=O)Nc2oc(-c3ccccc3)c(-c3ccccc3)c2C#N)nnc1-c1ccco1	29.1 µM [falling, single point]	–
CN(C)CCCNc1nc(N)c([N+](=O)[O-])c(NCc2ccccc2)n1	25.1 µM [falling, partial curve]	–
O=C(COc1ccc2ccccc2c1)NCCNC(=O)COc1ccc2ccccc2c1	2.59 µM [rising, partial curve, poor fit]	–
CCN(CC(=O)Nc1ccc(NC(C)=O)cc1)C(=O)c1sc2nc3n(c(=O)c2c1C)CCC3	0.0291 µM [rising, full curve, poor fit]	–
O=C(N/N=C/c1ccc(O)cc1)c1cc(-c2ccccc2)nc2ccccc12	15.8 µM [falling, partial curve, poor fit]	–
CCC(C)(C)n1nnnc1C(c1ccc(C)cc1)N(Cc1ccco1)Cc1cccs1 (configuration not stated)	7.31 µM [falling, single point]	–
Cc1nn(CC(=O)NCc2cccc3ccccc23)c(=O)c2ccccc12	11.2 µM [rising, partial curve, poor fit]	–
O=C(Nc1ccc(Cl)c(S(=O)(=O)N2CCOCC2)c1)c1ccc2c(c1)OCCO2	35.5 µM [falling, single point]	–
CCc1ccc(C(=O)Cn2ncc(Cl)c(Cl)c2=O)cc1	15.8 µM [falling, single point]	–

SMILES	AC50 [1]	AC50 [2]
Cc1nnsc1-c1nc2ccccc2[nH]1	35.5 µM [falling, single point]	–
COc1cc(OC)cc(C(=O)Nc2nc(CC(=O)NC(C)c3ccccc3)cs2)c1 (configuration not stated)	16.4 µM [falling, single point]	–
CC(=O)Nc1cc(-n2cnnn2)ccc1C	0.112 µM [falling, full curve, poor fit]	–
O=C(O)c1cc(NCc2ccccc2C(F)(F)F)ccc1N1CCOCC1	25.1 µM [falling, partial curve, poor fit]	–
CCCCCCSc1nsc(NC(=O)CC(C)C)n1	8.2 µM [rising, partial curve, poor fit]	–
Cc1ccc(C)c(-c2cc(C(=O)NCc3cccs3)c3ccccc3n2)c1	1.58 µM [rising, partial curve, poor fit]	–
O=C(O)CSc1cc(NS(=O)(=O)c2ccc(Br)cc2)c2ccccc2c1O	22.4 µM [falling, single point]	–
O=[N+]([O-])c1ccc(NCCN2CCOCC2)c([N+](=O)[O-])c1	10 µM [rising, partial curve, poor fit]	–
CCOC(=O)Cc1csc(NC(=O)c2ccc(F)cc2)n1	35.5 µM [falling, single point]	–
CCOC(=O)c1ccccc1N=Cc1c(O)c2ccccc2oc1=O	2.51 µM [falling, full curve]	–
Cc1oc2ccc(OCc3ccc(F)cc3Cl)cc2c1C(=O)O	12.6 µM [rising, partial curve, poor fit]	–
O=C(Nc1ncc2c(n1)-c1ccccc1OC2)c1ccc(F)cc1	10 µM [falling, partial curve]	–
Cc1c(C(=N)C(C#N)C#N)c(=N)oc2c1ccc1ccccc12	11.2 µM [rising, partial curve]	–
CCCCOc1ccc(C(=O)NCC2(c3ccc(OC)cc3)CCOCC2)cc1	0.116 µM [rising, full curve, poor fit]	–
C=CCn1c(SCc2cc(=O)n3ccsc3n2)nc2scc(C3CC3)c2c1=O	7.08 µM [falling, partial curve, poor fit]	–
COc1ccc(NC(=O)c2noc(C(C)C)c2[N+](=O)[O-])cc1	2.82 µM [rising, single point]	–
CN(C)CCCN1c2ccccc2CCc2ccc(Cl)cc21	17.8 µM [falling, single point]	–
COc1ccc(C2/C=C\CN(C(=O)c3ccccc3)CC(=O)N2Cc2cccc(F)c2)cc1 (configuration not stated)	5.17 µM [rising, single point]	–
O=[N+]([O-])c1cnccc1Nc1ccccc1	20.6 µM [rising, single point]	–
O=C(NCc1ccccn1)Nc1cc(Cl)ccc1Cl	0.501 µM [rising, full curve, poor fit]	–
c1ccc2cc3[nH]c(CN4CCCCC4)nc3cc2c1	9.2 µM [falling, partial curve]	–
COC(=O)c1cccc(Nc2cc(C)nc(-c3ccccc3O)n2)c1	2.59 µM [falling, full curve]	–

SMILES	AC50 [1]	AC50 [2]
O=[N+]([O-])c1ccc(Cc2nnc(-c3ccccc3Cl)o2)cc1	7.08 µM [falling, full curve]	–
COc1ccc(/C=N/NC(=O)c2cccc(NC(=O)c3ccccc3Cl)c2)c(OC)c1	15.8 µM [falling, single point]	–
COc1ccc(-c2cn[nH]c2N)cc1	1.16 µM [falling, full curve, poor fit]	–
Cc1nnc(SCCC#N)n(CCC#N)c1=O	29.1 µM [rising, single point]	–
Cn1c2c(c3ccccc31)CC/C2=N\O	2.06 µM [rising, full curve, poor fit]	6.51 µM [falling, partial curve, poor fit]
O=C1CCCN1CC(CN1CCOCC1)Sc1nc2ccccc2c(=O)n1-c1ccccc1 (configuration not stated)	7.08 µM [rising, partial curve, poor fit]	–
COc1ccc(NC2=NCC(Cc3ccc(Br)cc3)S2)cc1 (configuration not stated)	–	18.4 µM [falling, partial curve, poor fit]
Cc1c(NC(=O)CCCN2C(=O)c3cccc4cccc(c34)C2=O)c(=O)n(-c2ccccc2)n1C	4.47 µM [rising, full curve, poor fit]	–
COc1cc(-c2noc(-c3ccco3)n2)cc(OC)c1OC	5.01 µM [rising, full curve]	–
C=CCn1c(NCc2ccccc2OC)nc2ccccc21	15.8 µM [falling, single point]	–
N#Cc1ccsc1NC(=O)CN1CCN(c2ccccc2)CC1	20.6 µM [rising, single point]	–
O=C(O)CC(c1cccc([N+](=O)[O-])c1)N1Cc2ccccc2C1=O (configuration not stated)	35.5 µM [rising, single point]	–
O=C(Cc1ccc([N+](=O)[O-])cc1)N1N=C(C2CC2)CC1(O)C(F)(F)F (configuration not stated)	0.126 µM [rising, full curve, poor fit]	–
Cc1cc2nc(-c3ccc(NC(=O)C(C)C)cc3)oc2cc1C	29.1 µM [rising, single point]	–
CC(C)Cc1nc(Nc2ccc(S(=O)(=O)N3CCCC3)cc2)c2nnn(Cc3ccccc3)c2n1	2.91 µM [falling, full curve, poor fit]	2.91 µM [rising, full curve]
COc1cccc(NC(=O)CSc2nnc(-c3ccoc3C)n2-c2ccccc2)c1	20.6 µM [falling, single point]	8.2 µM [rising, partial curve, poor fit]
COC(=O)c1c(C)oc2ccc(NS(=O)(=O)c3cc(OC)ccc3OC)cc12	–	6.51 µM [rising, partial curve, poor fit]
O=C(NCCCCc1ccccc1)c1cccc(Br)c1	4.47 µM [falling, partial curve, poor fit]	–
CC(=O)Nc1ccc(S(=O)(=O)n2cnc3ccccc32)cc1	6.51 µM [falling, partial curve, poor fit]	–
O=C(CC(C(=O)NCc1ccccc1)c1nc2ccccc2c(=O)[nH]1)NCc1ccccc1 (configuration not stated)	3.16 µM [rising, partial curve]	–
